PubChem BioAssay AID1159578 – Peter MacCallum Cancer Centre – 2015

Purpose: 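Knock-downs that alter how fast lymphatic endothelial cells migrate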 (primary screen)
Cell system: human lymphatic endothelial cells
Knock-down reagent: siRNA pool against human genes, 40 nM
Time to read-out: 48 h after transfection
Measured: 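High-content imaging of dye-stained cells in a scratch assay measures filled wound area and nuclei per well; duplicate means given as ratio to mock and robust z-score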
Scale: migration robust z-score: higher = faster migration into the scratch; nuclei per well: higher = more cells in the well
Hit rule: 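Pools averaging fewer than 3300 nuclei are never called; remaining pools count as changed when migration robust z lies outside -2 to 2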
Calls: active = migration changed; inactive = no migration change, or too few cells
Here is an unselected part of about 18,000 reagents. About 1,030 of all reagents (5.7%) count as active. 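Inactive calls also include pools with fewer than 3300 nuclei, whose migration was not assessed.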 Raw values are not corrected between plates. Not all columns of the deposit are shown.

With HPCAL1 (GeneID 3241), what was measured?
migration robust z-score: -1.6; migration class with cell-count check: migration z between -2 and 2; enough cells; nuclei per well, duplicate mean: 4884; outcome: inactive

What did the screen give for SYNJ2 (GeneID 8871)?
migration robust z-score: -0.11; migration class with cell-count check: migration z between -2 and 2; enough cells; nuclei per well, duplicate mean: 4238; outcome: inactive

What is on record for SERPINF1 (GeneID 5176)?
migration robust z-score: 1.02; migration class with cell-count check: migration z between -2 and 2; enough cells; nuclei per well, duplicate mean: 4846; outcome: inactive

For TREM1 (GeneID 54210), what was measured?
migration robust z-score: -0.31; migration class with cell-count check: migration z between -2 and 2; enough cells; nuclei per well, duplicate mean: 5114; outcome: inactive

Which result is listed for COX6B2 (GeneID 125965)?
migration robust z-score: 0.21; migration class with cell-count check: migration z between -2 and 2; enough cells; nuclei per well, duplicate mean: 6282; outcome: inactive

Which result is listed for EPS15L1 (GeneID 58513)?
migration robust z-score: 1.49; migration class with cell-count check: migration z between -2 and 2; enough cells; nuclei per well, duplicate mean: 5918; outcome: inactive

What did the screen give for CLECL1 (GeneID 160365)?
migration robust z-score: 0.95; migration class with cell-count check: migration z between -2 and 2; enough cells; nuclei per well, duplicate mean: 5918; outcome: inactive

For PAK6 (GeneID 56924), how do the results read?
migration robust z-score: -0.91; migration class with cell-count check: migration z between -2 and 2; enough cells; nuclei per well, duplicate mean: 3654; outcome: inactive

For UNC50 (GeneID 25972), what does the deposit list?
migration robust z-score: -0.92; migration class with cell-count check: migration z between -2 and 2; enough cells; nuclei per well, duplicate mean: 4384; outcome: inactive

Which result is listed for EIF4E (GeneID 1977)?
migration robust z-score: -0.34; migration class with cell-count check: migration z between -2 and 2; enough cells; nuclei per well, duplicate mean: 6038; outcome: inactive

With NRDC (GeneID 4898), what was measured?
migration robust z-score: 0.73; migration class with cell-count check: migration z between -2 and 2; enough cells; nuclei per well, duplicate mean: 5256; outcome: inactive

What did the screen give for CRISP1 (GeneID 167)?
migration robust z-score: -0.78; migration class with cell-count check: migration z between -2 and 2; enough cells; nuclei per well, duplicate mean: 5643; outcome: inactive

With MTCL1 (GeneID 23255), what was measured?
migration robust z-score: 0.71; migration class with cell-count check: migration z between -2 and 2; enough cells; nuclei per well, duplicate mean: 5847; outcome: inactive

With CTR9 (GeneID 9646), what does the deposit list?
migration robust z-score: -2.36; migration class with cell-count check: migration z below -2; enough cells; nuclei per well, duplicate mean: 4842; outcome: active

For UGT2B7 (GeneID 7364), what does the deposit list?
migration robust z-score: -0.06; migration class with cell-count check: migration z between -2 and 2; enough cells; nuclei per well, duplicate mean: 5450; outcome: inactive

What did the screen give for CAMKK2 (GeneID 10645)?
migration robust z-score: -0.24; migration class with cell-count check: migration z between -2 and 2; enough cells; nuclei per well, duplicate mean: 7957; outcome: inactive

For DCN (GeneID 1634), what was measured?
migration robust z-score: -0.51; migration class with cell-count check: migration z between -2 and 2; enough cells; nuclei per well, duplicate mean: 5604; outcome: inactive

What is on record for LIM2 (GeneID 3982)?
migration robust z-score: -1.31; migration class with cell-count check: migration z between -2 and 2; enough cells; nuclei per well, duplicate mean: 3838; outcome: inactive

How did the screen score H2BC4 (GeneID 8347)?
migration robust z-score: 0.35; migration class with cell-count check: migration z between -2 and 2; enough cells; nuclei per well, duplicate mean: 5690; outcome: inactive

What did the screen give for PATJ (GeneID 10207)?
migration robust z-score: -0.24; migration class with cell-count check: migration z between -2 and 2; enough cells; nuclei per well, duplicate mean: 5948; outcome: inactive

For CNN2 (GeneID 1265), what was measured?
migration robust z-score: 0.48; migration class with cell-count check: migration z between -2 and 2; enough cells; nuclei per well, duplicate mean: 5927; outcome: inactive

What did the screen give for VOPP1 (GeneID 81552)?
migration robust z-score: 1.36; migration class with cell-count check: migration z between -2 and 2; enough cells; nuclei per well, duplicate mean: 5265; outcome: inactive

What did the screen give for ICAM5 (GeneID 7087)?
migration robust z-score: -0.19; migration class with cell-count check: migration z between -2 and 2; enough cells; nuclei per well, duplicate mean: 5666; outcome: inactive

What is on record for CENATAC (GeneID 338657)?
migration robust z-score: 0.26; migration class with cell-count check: migration z between -2 and 2; enough cells; nuclei per well, duplicate mean: 5207; outcome: inactive

With DMRTA1 (GeneID 63951), what was measured?
migration robust z-score: 0.44; migration class with cell-count check: migration z between -2 and 2; enough cells; nuclei per well, duplicate mean: 6328; outcome: inactive

For SLC25A2 (GeneID 83884), what was measured?
migration robust z-score: -0.21; migration class with cell-count check: migration z between -2 and 2; enough cells; nuclei per well, duplicate mean: 4596; outcome: inactive

With SLC22A3 (GeneID 6581), what was measured?
migration robust z-score: 0.5; migration class with cell-count check: migration z between -2 and 2; enough cells; nuclei per well, duplicate mean: 3784; outcome: inactive

2 of these entries in another layout.
Target gene,migration robust z-score,migration class with cell-count check,"nuclei per well, duplicate mean",outcome
CENATAC (GeneID 338657),0.26,migration z between -2 and 2; enough cells,5207,inactive
DMRTA1 (GeneID 63951),0.44,migration z between -2 and 2; enough cells,6328,inactive
